Laboratory results published in US8327467B2, “Anthranilic acid derivative or salt thereof” (Toyama Chemical Co., Ltd., priority 2005, dated 2012).

Tested on: MMP-13
Experiment: MMP-13 production inhibition test
Format: cell-based
Settings: 30 μmol/L; human cartilage derived cell line SW1353, IL-1β 10 ng/mL, 16 hours after stimulation, MMP-13 in culture supernatant by ELISA; read-out: Inhibition rate (%) at 30 μmol/L
Protocol: MMP-13 Production Inhibition Test
6.8×10^3 human cartilage derived cell line SW1353 cells were suspended in 100 μL of Dulbecco modified Eagle's medium supplemented with 10% fetal calf serum, plated on 96-well plates and cultured for 3 days. After the culture medium was changed to Dulbecco modified Eagle's medium containing 0.2% lactalbumin hydrolysate and the cells were cultured for 6 hours, test compounds were added and then IL-1β was added to obtain the final concentration of 10 ng/mL 1 hour later. 16 hours after the stimulation, supernatant was collected and the amount of MMP-13 in the culture supernatant was determined with an ELISA kit (Amersham). The inhibition rate was calculated from the amount of MMP-13 in the presence of a test compound assuming that the amount of MMP-13 was 100% in the absence of the test compound.

CN(C)c1ccc(-c2ccc(C(=O)O)c(Nc3ccc(F)cc3)c2)cc1 [Example 237, 4-(4-(dimethylamino)phenyl)-2-(4-fluoroanilino)benzoic acid]
inhibition at 30 µM: 97%
